Reference: PubChem BioAssay AID2685 (National Center for Advancing Translational Sciences (NCATS), 2010)
The list shows a part of the results. Further columns of the screen follow, without active or inactive calls. Compounds called inactive in the main read-out are mostly missing here. Potencies come from curve fits of mixed quality, noted in brackets.

Assay: qHTS Assay for Lipid Storage Modulators in Drosophila S3 Cells;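 as to cell number change: cells counted by Cell Tracker Red CMTPX staining in the red channel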
Conditions: BODIPY lipid droplet fluorescence, 18-24 h; for cell number change: measured here: cell count max response, cells fed with added oleic acid
Summary of the method: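 Laser-scanning cytometry quantifies lipid droplet accumulation (500–530 nm total intensity; droplet/cell object ratio) in oleic acid-fed (400 uM added) Drosophila S3 cells treated with a concentration series. 20 uM Triacsin C defined 100% inhibition.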

[1] = measured here: lipid fluorescence (Fed channel) AC50, cells fed with added oleic acid
[2] = measured here: cell number channel AC50, cells fed with added oleic acid

Structure (SMILES) | cell number change [%] | AC50 [1] | AC50 [2]
COCCCN(C(=O)c1cc(Cl)nc2ccccc12)c1c(N)n(Cc2ccccc2)c(=O)[nH]c1=O | 6.83 | 6.51 µM [rising, single point] | –
Cc1nc2ccccc2c(=O)n1/N=C/c1ccc(O)c(O)c1O | 46.8 | – | 29.1 µM [rising, single point]
O=C(O)c1cccc(S(=O)(=O)N(Cc2ccccc2)c2ccc(Cl)cc2)c1 | -17 | 20.6 µM [falling, partial curve] | –
COc1cccc(/C=N/Nc2nc3ccccc3n3cnnc23)c1O | -15.9 | 16.4 µM [falling, single point] | –
O=[N+]([O-])c1ccc(CN2CCN(c3ccccc3)CC2)o1 | 11.7 | 20.6 µM [rising, single point] | –
O=C(CC1C(=O)NCCN1Cc1ccc(F)cc1)NC1CCCCCCC1 (configuration not stated) | -8.49 | 0.58 µM [rising, single point] | –
CCC(=O)Nc1ccc(-c2nn3c(C)nnc3s2)cc1C | -0.929 | 2.91 µM [rising, partial curve, poor fit] | –
Cc1ccc(N=Cc2cc3c(cc2O)OC(N)=C(C#N)C3c2ccccc2)cc1 (configuration not stated) | -42.8 | 29.1 µM [falling, single point] | 29.1 µM [falling, single point]
Cc1cccc(NC(=O)c2nc[nH]c2C(=O)N[C@@H](C)c2ccccc2)c1 | -83.7 | – | 29.1 µM [falling, single point]
O=C(COc1ccc(Br)cc1)N(Cc1cccs1)C1CCS(=O)(=O)C1 (configuration not stated) | 1.49 | – | 0.82 µM [falling, single point]
CC(=O)Nc1cccc(NC(=O)Cc2ccc3ccccc3c2)c1 | 27 | 2.06 µM [rising, partial curve] | –
C=CCc1cccc(/C=N/NC(=O)C(C)Nc2ccc(C)cc2)c1O (configuration not stated) | 14.1 | 0.58 µM [falling, single point] | –
O=C(CN1CCN(S(=O)(=O)c2ccc(Cl)s2)CC1)N1CCCCC1 | 8.18 | – | –
COc1cc(C(=O)N2CCSCC2)ccc1OC1CCN(C(C)=O)CC1 | 12.3 | 6.51 µM [rising, single point] | –
Cc1ccccc1C(=O)NNC1=NCCC1 | -11.6 | 23.1 µM [falling, partial curve] | –
CC1CCCCC1NC(=O)CCCn1c(=S)[nH]c2ccsc2c1=O (configuration not stated) | -65.5 | 23.1 µM [falling, single point] | 18.4 µM [falling, single point]
CCc1cccc(NC(=O)CCCN2C(=O)NC(C)(C)C2=O)c1 | 2.98 | – | –
CCC(C)(C)n1nnnc1C(c1cccs1)N1CCN(Cc2ccccc2)CC1 (configuration not stated) | 6.1 | 5.8 µM [rising, partial curve] | –
O=C(c1ccc(COc2ccccc2Br)cc1)N1CCCCC1 | 54 | 1.46 µM [rising, full curve] | 1.84 µM [rising, full curve]
Cc1cc(C)c(C(=O)COC(=O)CNC(=O)c2ccccc2C)c(C)c1 | -25 | 5.17 µM [rising, full curve, poor fit] | 0.116 µM [rising, partial curve, poor fit]
CC1(C)CC2CC(C)(CN2C(=O)COC(=O)c2cccc(O)c2)C1 (configuration not stated) | -20.6 | 5.8 µM [falling, partial curve, poor fit] | –
COCCCNCCOCCSc1ccc(Cl)cc1 | 0.549 | – | –
COc1ccc(/C=N/NC(=O)c2nc(-c3ccccc3)cc(-c3ccccc3)n2)cc1OC | -9.94 | 0.231 µM [rising, partial curve, poor fit] | –
COc1ccc(Cn2nnnc2CN2CCC(c3nc4ccccc4s3)CC2)cc1 | – | 5.17 µM [rising, full curve] | 6.51 µM [rising, single point]
CCCSc1nc2c(c(=O)n(C)c(=O)n2C)n1Cc1ccc(C)cc1 | -11.7 | – | –
O=C(CCN1C(=O)[C@@H]2Cc3ccccc3CN2C1=O)NCc1ccccc1 | -22.8 | – | –
COc1ccc(S(=O)(=O)N2CCC3(CC2)OCCN3S(=O)(=O)c2ccccc2)cc1OC | – | – | 1.84 µM [rising, partial curve, poor fit]
Cc1cc(C)c2nc(N(CCCN(C)C)C(=O)c3ccc(S(=O)(=O)N4CC(C)OC(C)C4)cc3)sc2c1 (configuration not stated) | -25 | – | 2.06 µM [rising, partial curve]
COc1ccc(NC(=O)C(C)N2c3cccc4cccc(c34)S2(=O)=O)cc1OC (configuration not stated) | -49.6 | 14.6 µM [falling, partial curve] | 14.6 µM [falling, partial curve]

Sorted by SMILES length (largest number first): three of the compounds above
Structure (SMILES) | cell number change [%] | AC50 [1] | AC50 [2]
O=C(CC1C(=O)NCCN1Cc1ccc(F)cc1)NC1CCCCCCC1 (configuration not stated) | -8.49 | 0.58 µM [rising, single point] | –
O=C(c1ccc(COc2ccccc2Br)cc1)N1CCCCC1 | 54 | 1.46 µM [rising, full curve] | 1.84 µM [rising, full curve]
COCCCNCCOCCSc1ccc(Cl)cc1 | 0.549 | – | –
